This is one part of the list.
Key:
Test in all cases: log2 fold change, soluble protein after heating vs DMSO (PISA); higher = thermal stabilisation; K562 cells, 10 uM, 30 min; active = over 0.2 and 3.5 SD of the protein, either way, in both replicates (recomputed)
[1] = compound: Cc1ccc(NC(=O)c2ccc(CN3CC[C@H](N(C)C)C3)c(C(F)(F)F)c2)cc1Nc1nccc(-c2cncnc2)n1 [bafetinib]
In short: (§1)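 K562 cells at 2×10^6 cells/mL were treated with 10 μM compound for 30 min. Aliquots were heated for 3 min across 48°C-58°C, pooled, and extracted in PBS with 0.5% NP-40 at 4°C; soluble protein was the supernatant after 21,000xg for 90 min. Soluble protein was quantified by TMTpro 16plex LC-MS/MS with channel sums equalised, and reported as log2 fold change in thermal stability against DMSO controls, with values from duplicates.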

Amino acid sequences for entries named in this document (tags omitted). A change or cut given only in a name is not applied to a line headed by its entry.
UniProt P13716: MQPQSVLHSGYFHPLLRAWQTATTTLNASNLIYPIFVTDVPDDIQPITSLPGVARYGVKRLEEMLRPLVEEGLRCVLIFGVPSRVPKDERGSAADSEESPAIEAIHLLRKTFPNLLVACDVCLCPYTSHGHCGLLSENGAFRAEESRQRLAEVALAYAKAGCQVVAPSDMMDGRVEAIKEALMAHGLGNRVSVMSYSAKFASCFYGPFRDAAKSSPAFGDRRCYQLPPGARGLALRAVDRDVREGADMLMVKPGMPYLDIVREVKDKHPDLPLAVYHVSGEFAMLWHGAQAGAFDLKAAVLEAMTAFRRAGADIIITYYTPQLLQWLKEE
UniProt Q9H6U8: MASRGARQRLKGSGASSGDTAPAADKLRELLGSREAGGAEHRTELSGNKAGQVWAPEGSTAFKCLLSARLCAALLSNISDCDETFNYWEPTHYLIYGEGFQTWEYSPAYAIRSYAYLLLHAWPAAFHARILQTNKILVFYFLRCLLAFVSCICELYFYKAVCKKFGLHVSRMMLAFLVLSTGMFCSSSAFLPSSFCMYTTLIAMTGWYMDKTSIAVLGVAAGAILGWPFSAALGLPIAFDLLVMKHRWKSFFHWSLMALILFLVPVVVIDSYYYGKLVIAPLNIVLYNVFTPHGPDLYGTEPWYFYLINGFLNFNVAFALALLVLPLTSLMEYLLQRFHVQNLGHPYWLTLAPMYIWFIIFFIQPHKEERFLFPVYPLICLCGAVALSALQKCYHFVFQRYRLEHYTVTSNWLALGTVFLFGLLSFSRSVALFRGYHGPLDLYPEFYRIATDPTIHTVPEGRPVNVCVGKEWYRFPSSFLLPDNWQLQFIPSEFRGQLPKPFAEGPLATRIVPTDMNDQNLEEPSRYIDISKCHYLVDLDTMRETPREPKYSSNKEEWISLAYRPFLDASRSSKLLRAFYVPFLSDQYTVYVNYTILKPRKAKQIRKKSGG
UniProt Q9H1A4, whole entry, looked up: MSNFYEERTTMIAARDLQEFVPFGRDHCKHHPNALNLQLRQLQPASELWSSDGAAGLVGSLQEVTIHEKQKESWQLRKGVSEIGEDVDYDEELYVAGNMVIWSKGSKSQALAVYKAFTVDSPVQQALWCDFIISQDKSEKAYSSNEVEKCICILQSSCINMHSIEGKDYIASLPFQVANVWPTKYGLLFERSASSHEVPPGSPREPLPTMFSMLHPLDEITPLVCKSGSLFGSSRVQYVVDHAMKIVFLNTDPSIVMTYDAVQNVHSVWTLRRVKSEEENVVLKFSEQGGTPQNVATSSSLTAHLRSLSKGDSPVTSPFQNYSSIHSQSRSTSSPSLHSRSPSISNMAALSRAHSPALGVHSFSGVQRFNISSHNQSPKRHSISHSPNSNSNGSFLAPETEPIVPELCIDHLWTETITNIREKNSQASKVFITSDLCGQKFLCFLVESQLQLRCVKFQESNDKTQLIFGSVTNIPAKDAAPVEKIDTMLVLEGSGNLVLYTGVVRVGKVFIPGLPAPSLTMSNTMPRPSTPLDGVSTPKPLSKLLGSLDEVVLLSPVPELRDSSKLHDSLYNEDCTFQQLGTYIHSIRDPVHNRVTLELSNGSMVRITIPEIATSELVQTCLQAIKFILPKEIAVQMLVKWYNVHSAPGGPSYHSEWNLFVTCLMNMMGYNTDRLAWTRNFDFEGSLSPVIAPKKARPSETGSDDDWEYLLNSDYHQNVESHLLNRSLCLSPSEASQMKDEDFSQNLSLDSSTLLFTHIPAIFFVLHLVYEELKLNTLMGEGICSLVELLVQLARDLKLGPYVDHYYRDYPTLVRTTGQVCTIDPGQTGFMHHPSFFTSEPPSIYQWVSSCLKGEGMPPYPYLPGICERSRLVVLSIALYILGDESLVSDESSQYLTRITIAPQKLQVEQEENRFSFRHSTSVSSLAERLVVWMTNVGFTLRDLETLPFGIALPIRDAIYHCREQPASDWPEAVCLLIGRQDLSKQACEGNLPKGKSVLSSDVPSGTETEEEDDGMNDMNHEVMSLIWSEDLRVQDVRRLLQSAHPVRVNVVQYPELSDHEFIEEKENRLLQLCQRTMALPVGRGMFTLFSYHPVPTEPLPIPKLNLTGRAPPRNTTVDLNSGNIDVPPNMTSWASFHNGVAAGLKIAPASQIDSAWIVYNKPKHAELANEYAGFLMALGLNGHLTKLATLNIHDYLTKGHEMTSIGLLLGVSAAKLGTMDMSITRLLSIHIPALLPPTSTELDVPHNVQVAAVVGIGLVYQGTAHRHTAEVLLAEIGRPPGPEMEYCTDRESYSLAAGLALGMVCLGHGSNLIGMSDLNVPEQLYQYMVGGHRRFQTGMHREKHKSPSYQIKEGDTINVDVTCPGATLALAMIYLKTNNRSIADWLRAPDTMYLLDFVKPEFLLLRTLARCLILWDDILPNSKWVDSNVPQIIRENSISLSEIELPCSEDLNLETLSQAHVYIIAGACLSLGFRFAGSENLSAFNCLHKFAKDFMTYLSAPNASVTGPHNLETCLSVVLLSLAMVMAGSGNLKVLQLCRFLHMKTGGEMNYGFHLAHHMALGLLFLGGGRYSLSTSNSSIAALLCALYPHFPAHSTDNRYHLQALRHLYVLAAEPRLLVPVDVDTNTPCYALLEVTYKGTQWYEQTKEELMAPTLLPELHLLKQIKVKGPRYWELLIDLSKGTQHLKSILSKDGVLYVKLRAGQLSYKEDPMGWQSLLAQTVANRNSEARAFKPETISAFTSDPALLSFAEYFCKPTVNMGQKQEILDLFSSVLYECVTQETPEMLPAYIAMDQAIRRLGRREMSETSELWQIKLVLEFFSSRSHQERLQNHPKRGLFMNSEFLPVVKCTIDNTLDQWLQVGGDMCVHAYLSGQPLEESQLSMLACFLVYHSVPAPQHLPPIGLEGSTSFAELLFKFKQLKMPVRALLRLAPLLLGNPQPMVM
UniProt Q13686: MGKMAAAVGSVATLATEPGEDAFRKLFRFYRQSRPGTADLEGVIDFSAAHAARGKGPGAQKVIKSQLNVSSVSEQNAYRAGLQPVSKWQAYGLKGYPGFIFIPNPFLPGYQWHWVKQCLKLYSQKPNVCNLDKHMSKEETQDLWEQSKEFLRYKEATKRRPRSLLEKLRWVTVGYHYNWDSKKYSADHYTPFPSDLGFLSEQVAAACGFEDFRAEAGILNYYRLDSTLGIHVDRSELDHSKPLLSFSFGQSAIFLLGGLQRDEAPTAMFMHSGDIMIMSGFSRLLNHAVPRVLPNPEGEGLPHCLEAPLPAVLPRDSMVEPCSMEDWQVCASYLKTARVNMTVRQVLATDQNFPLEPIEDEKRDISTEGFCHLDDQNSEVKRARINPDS
UniProt Q9NP73: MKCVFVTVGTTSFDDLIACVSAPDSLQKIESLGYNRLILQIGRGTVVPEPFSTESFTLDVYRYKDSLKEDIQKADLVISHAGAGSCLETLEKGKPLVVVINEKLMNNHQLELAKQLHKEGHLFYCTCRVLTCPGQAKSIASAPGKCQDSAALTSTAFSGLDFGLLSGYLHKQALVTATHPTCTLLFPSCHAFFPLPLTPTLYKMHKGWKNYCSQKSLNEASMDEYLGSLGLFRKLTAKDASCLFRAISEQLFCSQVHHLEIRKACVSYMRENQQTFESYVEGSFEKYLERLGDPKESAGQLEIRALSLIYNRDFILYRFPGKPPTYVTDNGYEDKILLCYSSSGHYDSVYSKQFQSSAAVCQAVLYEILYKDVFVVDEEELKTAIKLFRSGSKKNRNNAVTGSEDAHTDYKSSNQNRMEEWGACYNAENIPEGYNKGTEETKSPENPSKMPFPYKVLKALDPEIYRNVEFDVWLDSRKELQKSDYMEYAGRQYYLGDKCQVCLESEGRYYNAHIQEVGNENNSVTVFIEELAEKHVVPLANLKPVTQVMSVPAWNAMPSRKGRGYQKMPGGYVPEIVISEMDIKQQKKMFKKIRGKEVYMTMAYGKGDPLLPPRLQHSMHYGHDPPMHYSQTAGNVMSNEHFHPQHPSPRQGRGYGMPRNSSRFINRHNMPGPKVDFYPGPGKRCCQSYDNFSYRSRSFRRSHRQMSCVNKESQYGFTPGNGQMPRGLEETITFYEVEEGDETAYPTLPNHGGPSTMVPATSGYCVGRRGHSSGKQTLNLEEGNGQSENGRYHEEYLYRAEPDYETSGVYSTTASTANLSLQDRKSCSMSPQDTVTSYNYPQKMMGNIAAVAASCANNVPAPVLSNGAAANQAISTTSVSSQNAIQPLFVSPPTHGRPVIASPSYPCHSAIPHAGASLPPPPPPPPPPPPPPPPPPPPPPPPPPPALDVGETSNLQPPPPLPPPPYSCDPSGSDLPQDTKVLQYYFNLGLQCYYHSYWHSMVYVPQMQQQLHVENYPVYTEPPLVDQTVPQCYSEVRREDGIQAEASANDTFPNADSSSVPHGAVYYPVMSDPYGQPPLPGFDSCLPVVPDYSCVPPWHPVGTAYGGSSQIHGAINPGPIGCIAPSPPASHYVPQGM
UniProt Q9BQI0: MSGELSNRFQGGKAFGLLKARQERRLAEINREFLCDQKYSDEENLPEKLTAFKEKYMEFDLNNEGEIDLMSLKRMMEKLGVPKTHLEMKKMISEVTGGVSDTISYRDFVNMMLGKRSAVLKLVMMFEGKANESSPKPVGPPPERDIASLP
UniProt Q9BRQ8: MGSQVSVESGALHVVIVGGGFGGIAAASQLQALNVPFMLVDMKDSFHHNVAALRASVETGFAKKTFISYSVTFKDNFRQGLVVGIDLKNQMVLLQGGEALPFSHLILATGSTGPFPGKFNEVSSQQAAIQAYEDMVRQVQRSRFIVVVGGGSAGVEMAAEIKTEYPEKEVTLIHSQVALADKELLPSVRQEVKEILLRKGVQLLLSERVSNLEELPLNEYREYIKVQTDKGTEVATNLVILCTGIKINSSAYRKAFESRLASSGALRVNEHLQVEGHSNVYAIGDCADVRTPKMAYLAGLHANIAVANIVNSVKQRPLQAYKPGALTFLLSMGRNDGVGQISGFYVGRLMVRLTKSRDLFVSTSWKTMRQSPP
UniProt Q96HN2, whole entry, looked up: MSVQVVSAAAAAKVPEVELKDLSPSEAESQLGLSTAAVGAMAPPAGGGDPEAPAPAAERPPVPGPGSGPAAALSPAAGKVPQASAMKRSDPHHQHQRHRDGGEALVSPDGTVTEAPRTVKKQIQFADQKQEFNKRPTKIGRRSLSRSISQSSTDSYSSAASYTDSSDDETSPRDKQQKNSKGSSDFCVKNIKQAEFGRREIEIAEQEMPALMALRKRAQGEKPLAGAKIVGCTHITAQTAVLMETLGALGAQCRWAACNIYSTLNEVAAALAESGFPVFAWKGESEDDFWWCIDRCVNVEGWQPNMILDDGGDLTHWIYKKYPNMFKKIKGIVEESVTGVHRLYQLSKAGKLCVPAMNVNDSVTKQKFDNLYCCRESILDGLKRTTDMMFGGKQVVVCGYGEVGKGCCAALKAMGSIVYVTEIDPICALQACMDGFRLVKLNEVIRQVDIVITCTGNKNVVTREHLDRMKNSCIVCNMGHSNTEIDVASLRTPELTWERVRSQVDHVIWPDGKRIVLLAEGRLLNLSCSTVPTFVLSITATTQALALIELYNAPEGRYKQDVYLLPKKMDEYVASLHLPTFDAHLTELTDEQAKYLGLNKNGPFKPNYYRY
UniProt Q6ZN18: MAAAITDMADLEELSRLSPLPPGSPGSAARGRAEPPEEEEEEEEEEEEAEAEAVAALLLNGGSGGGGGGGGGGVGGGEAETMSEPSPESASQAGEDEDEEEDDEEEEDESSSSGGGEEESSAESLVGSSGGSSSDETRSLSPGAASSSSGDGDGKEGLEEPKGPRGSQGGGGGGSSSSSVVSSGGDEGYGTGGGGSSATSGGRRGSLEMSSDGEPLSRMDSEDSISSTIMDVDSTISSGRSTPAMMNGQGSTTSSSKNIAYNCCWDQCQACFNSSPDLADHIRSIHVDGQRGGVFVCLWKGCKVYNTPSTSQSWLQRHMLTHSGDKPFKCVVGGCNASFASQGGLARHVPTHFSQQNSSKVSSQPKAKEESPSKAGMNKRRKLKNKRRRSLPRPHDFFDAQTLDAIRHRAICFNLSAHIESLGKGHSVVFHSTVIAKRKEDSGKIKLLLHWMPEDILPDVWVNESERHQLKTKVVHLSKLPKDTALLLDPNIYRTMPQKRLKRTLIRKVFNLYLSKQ
UniProt Q8N142: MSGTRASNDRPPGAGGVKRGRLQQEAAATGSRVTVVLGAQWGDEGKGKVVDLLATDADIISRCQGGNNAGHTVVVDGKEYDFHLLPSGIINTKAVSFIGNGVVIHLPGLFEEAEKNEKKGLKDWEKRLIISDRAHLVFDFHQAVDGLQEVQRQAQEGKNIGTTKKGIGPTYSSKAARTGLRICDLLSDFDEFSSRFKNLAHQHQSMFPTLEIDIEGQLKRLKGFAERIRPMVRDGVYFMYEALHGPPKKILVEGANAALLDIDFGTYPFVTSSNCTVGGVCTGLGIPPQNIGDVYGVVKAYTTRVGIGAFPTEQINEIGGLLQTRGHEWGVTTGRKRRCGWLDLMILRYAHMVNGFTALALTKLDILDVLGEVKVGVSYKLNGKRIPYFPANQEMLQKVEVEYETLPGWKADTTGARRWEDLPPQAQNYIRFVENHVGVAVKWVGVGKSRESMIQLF

[2] = compound: Cc1cccc(CC(=O)N2CCc3c2ccc(-c2cn(C)c4ncnc(N)c24)c3F)n1
In short: as §1

[3] = compound: Cc1cn(-c2cc(NC(=O)c3ccc(C)c(Nc4nccc(-c5cccnc5)n4)c3)cc(C(F)(F)F)c2)cn1 [nilotinib]
In short: as §1

[4] = compound: Cc1nc(Nc2n[nH]c3c2CN(C(=O)N[C@H](CN(C)C)c2ccccc2)C3(C)C)c2sccc2n1
In short: as §1

[5] = compound: Cc1nc(Nc2ncc(C(=O)Nc3c(C)cccc3Cl)s2)cc(N2CCN(CCO)CC2)n1 [dasatinib]
In short: as §1

[6] = compound: Cc1ncc(-c2ccnc(Nc3ccc(S(C)(=O)=O)cc3)n2)n1C(C)C
In short: as §1

[7] = compound: Cn1cc(-c2ccc3c(c2)CCN3C(=O)Cc2cccc(C(F)(F)F)c2)c2c(N)ncnc21
In short: as §1

[8] = compound: Cn1cc(-c2ccc3nnc(C(F)(F)c4ccc5ncccc5c4)n3n2)cn1
In short: as §1

[9] = compound: Cn1cncc1[C@@](N)(c1ccc(Cl)cc1)c1ccc2c(c1)c(-c1cccc(Cl)c1)cc(=O)n2C [tipifarnib]
In short: as §1

[10] = compound: FC(F)(F)c1ccc(/C=C/c2nc(COc3ccc(CCCCn4ccnn4)cc3)co2)cc1 [mubritinib]
In short: as §1

Measured: log2 fold change

ALDH5A1 isoform 2 (UniProt P51649)
inactive: [1] -0.067 | [2] -0.058 | [3] 0.006 | [4] 0.012 | [5] 0.018 | [6] -0.027 | [7] 0.015 | [8] -0.001 | [9] -0.011 | [10] 0.004

ALAD isoform 2 (UniProt P13716)
inactive: [1] -0.009 | [2] -0.006 | [3] -0.032 | [4] 0.077 | [5] 0.031 | [6] 0.005 | [7] -0.007 | [8] -0.027 | [9] 0.07 | [10] -0.013

AGPAT1 (UniProt Q99943)
inactive: [1] -0.036 | [2] 0.012 | [3] -0.035 | [4] 0.016 | [5] -0.033 | [6] -0.063 | [7] 0.033 | [8] -0.006 | [9] 0.027 | [10] 0.014

AK2 isoform 2 (UniProt P54819)
inactive: [1] -0.041 | [2] -0.013 | [3] 0.029 | [4] -0.01 | [5] 0.063 | [6] -0.016 | [7] 0.012 | [8] 0.021 | [9] 0.028 | [10] 0.024

AKAP8L (UniProt Q9ULX6)
inactive: [1] -0.078 | [2] -0.039 | [3] 0.044 | [4] -0.02 | [5] -0.161 | [6] -0.052 | [7] -0.036 | [8] -0.14 | [9] 0.039 | [10] 0.003

ALG11 (UniProt Q2TAA5)
inactive: [1] -0.078 | [2] 0.086 | [3] 0.001 | [4] -0.037 | [5] 0.005 | [6] 0.129 | [7] -0.072 | [8] 0.028 | [9] -0.016 | [10] 0.066

AK3 (UniProt Q9UIJ7)
inactive: [1] -0.044 | [2] -0.036 | [3] 0.017 | [4] 0.017 | [5] 0.019 | [6] -0.011 | [7] 0.019 | [8] -0.009 | [9] 0.007 | [10] 0.053

AGRN (UniProt O00468)
inactive: [1] 0.006 | [2] 0.001 | [3] -0.034 | [4] -0.035 | [5] 0.355 | [6] -0.086 | [7] 0.03 | [8] 0.162 | [9] 0.165 | [10] -0.079

AGFG1 isoform 4 (UniProt P52594)
inactive: [1] -0.097 | [2] 0.126 | [3] 0.041 | [4] -0.029 | [5] 0.004 | [6] 0.02 | [7] 0.044 | [8] 0.027 | [9] -0.077 | [10] 0.046

AKR1C3 (UniProt P42330)
inactive: [1] 0.018 | [2] -0.03 | [3] 0.025 | [4] 0.004 | [5] -0.038 | [6] 0.078 | [7] 0.068 | [10] -0.147
active: [8] 0.557 | [9] 0.862

ALG5 (UniProt Q9Y673)
inactive: [1] 0.021 | [2] 0.067 | [3] 0.009 | [4] -0.123 | [5] -0.045 | [6] -0.121 | [7] 0.088 | [8] 0.059 | [9] -0.079 | [10] -0.055

ALG9 isoform 3 (UniProt Q9H6U8)
inactive: [1] -0.049 | [2] -0.018 | [3] 0.074 | [4] 0 | [5] 0.019 | [6] -0.035 | [7] -0.01 | [8] -0.035 | [9] 0.094 | [10] -0.02

ADPRM (UniProt Q3LIE5)
inactive: [1] -0.12

AKAP8 (UniProt O43823)
inactive: [1] -0.051 | [2] -0.008 | [3] -0.001 | [4] -0.044 | [5] -0.155 | [6] -0.042 | [7] -0.007 | [8] -0.049 | [9] 0.022 | [10] 0.028

2 records picked at random from the list so far, as already listed:
AK2 isoform 2 (UniProt P54819)
inactive: [1] -0.041 | [2] -0.013 | [3] 0.029 | [4] -0.01 | [5] 0.063 | [6] -0.016 | [7] 0.012 | [8] 0.021 | [9] 0.028 | [10] 0.024

ALG9 isoform 3 (UniProt Q9H6U8)
inactive: [1] -0.049 | [2] -0.018 | [3] 0.074 | [4] 0 | [5] 0.019 | [6] -0.035 | [7] -0.01 | [8] -0.035 | [9] 0.094 | [10] -0.02

(list continues)

ANAPC1 (UniProt Q9H1A4)
inactive: [1] 0.005 | [2] -0.022 | [3] -0.009 | [4] -0.017 | [5] 0 | [6] 0.014 | [7] -0.073 | [8] -0.038 | [9] 0.02 | [10] 0.006

ALYREF (UniProt Q86V81)
inactive: [1] 0.246 | [2] -0.037 | [3] 0.012 | [4] 0.211 | [5] 0.259 | [6] 0.053 | [7] -0.236 | [8] -0.086 | [9] 0.103 | [10] -0.078

ALKBH1 (UniProt Q13686)
inactive: [1] -0.024 | [2] -0.175 | [3] 0.203 | [4] -0.26 | [5] -0.068 | [6] -0.051 | [7] -0.033 | [8] -0.204 | [9] 0.184

ALG13 (UniProt Q9NP73)
inactive: [1] -0.004 | [2] 0.009 | [3] 0.029 | [4] 0 | [5] -0.018 | [6] -0.046 | [7] -0.004 | [8] 0 | [9] 0.01 | [10] 0.07

AMOTL1 (UniProt Q8IY63)
inactive: [1] 0.162

AGPAT3 isoform 3 (UniProt Q9NRZ7)
inactive: [1] -0.057 | [2] 0.04 | [3] -0.012 | [4] 0.004 | [5] -0.092 | [6] -0.007 | [7] 0.033 | [8] 0.018 | [9] -0.025 | [10] 0.062

ADK (UniProt P55263)
active: [5] 0.387
inactive: [1] 0.201 | [2] 0 | [3] 0.122 | [4] 0.208 | [6] 0.07 | [7] 0.006 | [8] 0.241 | [9] 0.291 | [10] 0.037

ALDH9A1 (UniProt P49189)
inactive: [1] 0.023 | [2] 0.071 | [3] -0.08 | [4] -0.046 | [5] -0.105 | [6] 0.019 | [7] 0.047 | [8] 0.044 | [9] 0.099 | [10] -0.015

AFDN isoform 5 (UniProt P55196)
inactive: [1] -0.012 | [2] 0.035 | [3] -0.06 | [4] -0.135 | [5] -0.16 | [6] -0.06 | [7] 0.044 | [8] -0.008 | [9] -0.045 | [10] 0.054

AIF1L isoform 2 (UniProt Q9BQI0)
inactive: [1] 0.026 | [2] -0.004 | [3] -0.009 | [4] -0.13 | [5] -0.014 | [6] 0.132 | [7] 0.031 | [8] -0.059 | [9] -0.028 | [10] 0.138

ALDH2 (UniProt P05091)
inactive: [1] 0.009 | [2] -0.02 | [3] 0.006 | [4] -0.016 | [5] -0.034 | [6] 0.019 | [7] 0.072 | [8] 0.059 | [9] -0.005 | [10] 0.07

AHCYL1 (UniProt O43865)
inactive: [1] -0.009 | [2] -0.135 | [3] 0.006 | [4] 0.029 | [5] 0.005 | [6] 0.116 | [7] 0.041 | [8] 0.041 | [9] -0.014 | [10] -0.055

AIFM2 (UniProt Q9BRQ8)
inactive: [1] 0.008 | [2] -0.129 | [3] 0.067 | [4] 0.023 | [5] 0.046 | [6] -0.043 | [7] 0.081 | [8] 0.032 | [9] 0.199 | [10] 0.025

AHCYL2 (UniProt Q96HN2)
inactive: [1] -0.017 | [2] -0.025 | [3] 0.085 | [4] -0.052 | [5] 0.062 | [6] 0.056 | [7] 0.034 | [8] 0.009 | [9] -0.019 | [10] 0.013

AEBP2 (UniProt Q6ZN18)
inactive: [1] -0.084

ADSS1 (UniProt Q8N142)
inactive: [1] 0 | [2] -0.042 | [3] 0.125 | [4] -0.043 | [5] 0.026 | [6] -0.015 | [7] 0.04 | [8] -0.047 | [9] -0.066 | [10] 0.155

AGPS (UniProt O00116)
inactive: [1] -0.068 | [2] 0.025 | [3] 0.039 | [4] -0.012 | [5] -0.023 | [6] 0.006 | [7] 0.09 | [8] 0.01 | [9] 0.032 | [10] 0.112

AMPD2 (UniProt Q01433)
inactive: [1] -0.011 | [2] 0.002 | [3] 0.035 | [4] -0.029 | [5] -0.013 | [6] -0.032 | [7] 0.033 | [8] 0.012 | [9] 0.017 | [10] 0.034
